# Laboratory results published in the supplement of paper PMC10849652.
# Chains of the proteins cited; added tags and fusions are not shown. Lines headed by an entry give the natural chain unless they say otherwise; changes in a name come on top.
# UniProt P07686: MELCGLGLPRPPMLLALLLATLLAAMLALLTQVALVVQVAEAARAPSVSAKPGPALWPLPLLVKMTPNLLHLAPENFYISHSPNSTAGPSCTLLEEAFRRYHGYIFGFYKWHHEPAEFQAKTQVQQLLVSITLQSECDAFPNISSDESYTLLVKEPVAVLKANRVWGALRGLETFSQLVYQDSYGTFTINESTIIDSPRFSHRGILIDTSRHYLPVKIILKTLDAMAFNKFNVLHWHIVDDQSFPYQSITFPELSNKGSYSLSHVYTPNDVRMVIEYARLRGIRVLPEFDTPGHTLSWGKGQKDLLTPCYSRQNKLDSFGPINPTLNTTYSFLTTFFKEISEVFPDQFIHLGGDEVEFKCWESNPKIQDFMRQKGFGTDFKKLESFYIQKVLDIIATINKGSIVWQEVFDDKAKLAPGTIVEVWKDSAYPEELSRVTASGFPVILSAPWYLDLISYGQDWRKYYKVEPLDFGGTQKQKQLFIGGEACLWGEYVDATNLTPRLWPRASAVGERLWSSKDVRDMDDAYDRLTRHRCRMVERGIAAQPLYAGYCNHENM
# UniProt P56524: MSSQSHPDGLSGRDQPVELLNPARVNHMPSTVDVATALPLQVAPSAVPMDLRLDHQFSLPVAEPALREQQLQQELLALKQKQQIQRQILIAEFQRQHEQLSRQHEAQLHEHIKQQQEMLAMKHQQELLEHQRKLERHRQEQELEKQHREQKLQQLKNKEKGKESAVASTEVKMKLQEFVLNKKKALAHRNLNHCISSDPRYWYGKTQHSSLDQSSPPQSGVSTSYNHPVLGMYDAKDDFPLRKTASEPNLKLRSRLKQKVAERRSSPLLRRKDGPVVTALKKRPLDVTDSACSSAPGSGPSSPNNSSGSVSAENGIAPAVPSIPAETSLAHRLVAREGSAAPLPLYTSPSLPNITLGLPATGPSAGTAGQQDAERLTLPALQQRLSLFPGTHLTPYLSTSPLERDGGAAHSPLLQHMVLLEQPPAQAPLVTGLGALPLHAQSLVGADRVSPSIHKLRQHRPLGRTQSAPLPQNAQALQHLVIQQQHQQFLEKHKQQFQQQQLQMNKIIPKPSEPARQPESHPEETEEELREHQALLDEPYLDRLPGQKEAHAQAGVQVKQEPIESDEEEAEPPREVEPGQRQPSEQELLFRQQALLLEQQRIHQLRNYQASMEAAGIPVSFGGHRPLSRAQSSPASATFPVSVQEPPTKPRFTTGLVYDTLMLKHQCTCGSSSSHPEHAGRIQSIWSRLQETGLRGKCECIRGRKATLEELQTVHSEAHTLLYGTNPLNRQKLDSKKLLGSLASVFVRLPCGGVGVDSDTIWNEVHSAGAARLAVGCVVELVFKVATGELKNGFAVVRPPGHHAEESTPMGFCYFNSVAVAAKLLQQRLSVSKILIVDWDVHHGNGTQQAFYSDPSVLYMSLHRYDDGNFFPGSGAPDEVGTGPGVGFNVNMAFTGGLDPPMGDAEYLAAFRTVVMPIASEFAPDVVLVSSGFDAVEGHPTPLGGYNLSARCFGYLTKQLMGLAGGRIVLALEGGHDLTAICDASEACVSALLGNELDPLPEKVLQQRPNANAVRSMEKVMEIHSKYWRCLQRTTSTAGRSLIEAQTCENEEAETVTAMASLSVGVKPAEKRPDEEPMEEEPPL
# UniProt P78347: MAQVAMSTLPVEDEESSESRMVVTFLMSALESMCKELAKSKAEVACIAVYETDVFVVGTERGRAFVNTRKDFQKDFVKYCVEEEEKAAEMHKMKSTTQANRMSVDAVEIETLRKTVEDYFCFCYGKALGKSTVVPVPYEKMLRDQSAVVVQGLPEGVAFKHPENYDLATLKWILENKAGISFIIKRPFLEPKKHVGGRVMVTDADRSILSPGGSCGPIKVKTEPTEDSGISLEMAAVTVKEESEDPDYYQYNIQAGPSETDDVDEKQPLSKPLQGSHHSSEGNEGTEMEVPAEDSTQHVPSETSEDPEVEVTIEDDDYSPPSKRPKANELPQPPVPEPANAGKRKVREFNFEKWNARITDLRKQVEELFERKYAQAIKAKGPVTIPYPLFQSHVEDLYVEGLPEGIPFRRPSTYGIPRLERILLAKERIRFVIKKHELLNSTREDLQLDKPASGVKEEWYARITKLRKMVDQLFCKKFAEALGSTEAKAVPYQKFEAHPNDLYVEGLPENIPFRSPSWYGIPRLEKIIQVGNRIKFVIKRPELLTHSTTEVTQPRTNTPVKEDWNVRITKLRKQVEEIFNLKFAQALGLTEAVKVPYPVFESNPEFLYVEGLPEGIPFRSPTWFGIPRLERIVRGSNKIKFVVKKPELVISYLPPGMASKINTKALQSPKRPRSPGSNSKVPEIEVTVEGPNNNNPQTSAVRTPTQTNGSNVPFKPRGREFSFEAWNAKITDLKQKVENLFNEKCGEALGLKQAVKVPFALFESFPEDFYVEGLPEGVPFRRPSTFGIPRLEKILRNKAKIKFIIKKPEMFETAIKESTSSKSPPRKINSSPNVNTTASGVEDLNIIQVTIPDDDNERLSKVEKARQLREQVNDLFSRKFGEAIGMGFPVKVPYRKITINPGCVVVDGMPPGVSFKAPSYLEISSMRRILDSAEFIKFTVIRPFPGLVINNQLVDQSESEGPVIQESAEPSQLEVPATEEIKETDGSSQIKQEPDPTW
# UniProt P06396, whole entry, looked up: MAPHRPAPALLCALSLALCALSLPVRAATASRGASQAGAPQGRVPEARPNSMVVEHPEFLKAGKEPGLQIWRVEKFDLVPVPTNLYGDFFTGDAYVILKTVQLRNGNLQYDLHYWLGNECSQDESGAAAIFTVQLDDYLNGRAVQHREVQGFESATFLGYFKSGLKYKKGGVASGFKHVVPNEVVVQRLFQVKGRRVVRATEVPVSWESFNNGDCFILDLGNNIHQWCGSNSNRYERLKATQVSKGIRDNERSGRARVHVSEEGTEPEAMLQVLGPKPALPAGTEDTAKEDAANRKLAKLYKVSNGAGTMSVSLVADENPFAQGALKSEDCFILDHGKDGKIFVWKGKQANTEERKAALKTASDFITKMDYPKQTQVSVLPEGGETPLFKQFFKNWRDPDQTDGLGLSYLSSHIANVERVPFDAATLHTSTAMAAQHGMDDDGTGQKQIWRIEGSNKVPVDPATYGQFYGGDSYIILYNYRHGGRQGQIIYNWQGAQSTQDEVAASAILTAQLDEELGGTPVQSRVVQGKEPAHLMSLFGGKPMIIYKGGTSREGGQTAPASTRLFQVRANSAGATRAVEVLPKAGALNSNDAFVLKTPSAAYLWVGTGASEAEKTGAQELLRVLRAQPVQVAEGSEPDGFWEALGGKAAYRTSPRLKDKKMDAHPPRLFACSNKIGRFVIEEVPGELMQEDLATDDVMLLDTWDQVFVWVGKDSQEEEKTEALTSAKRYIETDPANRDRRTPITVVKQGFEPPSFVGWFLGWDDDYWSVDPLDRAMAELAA
# UniProt P69905, whole entry, looked up: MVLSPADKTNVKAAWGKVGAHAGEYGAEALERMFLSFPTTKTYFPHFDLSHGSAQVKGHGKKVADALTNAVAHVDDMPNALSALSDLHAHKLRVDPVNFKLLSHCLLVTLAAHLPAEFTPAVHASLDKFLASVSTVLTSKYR
# UniProt P02008: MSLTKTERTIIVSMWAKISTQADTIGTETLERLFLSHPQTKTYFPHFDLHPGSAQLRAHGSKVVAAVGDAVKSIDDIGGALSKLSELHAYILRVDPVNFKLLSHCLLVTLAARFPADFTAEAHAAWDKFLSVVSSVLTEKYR
# UniProt O15379: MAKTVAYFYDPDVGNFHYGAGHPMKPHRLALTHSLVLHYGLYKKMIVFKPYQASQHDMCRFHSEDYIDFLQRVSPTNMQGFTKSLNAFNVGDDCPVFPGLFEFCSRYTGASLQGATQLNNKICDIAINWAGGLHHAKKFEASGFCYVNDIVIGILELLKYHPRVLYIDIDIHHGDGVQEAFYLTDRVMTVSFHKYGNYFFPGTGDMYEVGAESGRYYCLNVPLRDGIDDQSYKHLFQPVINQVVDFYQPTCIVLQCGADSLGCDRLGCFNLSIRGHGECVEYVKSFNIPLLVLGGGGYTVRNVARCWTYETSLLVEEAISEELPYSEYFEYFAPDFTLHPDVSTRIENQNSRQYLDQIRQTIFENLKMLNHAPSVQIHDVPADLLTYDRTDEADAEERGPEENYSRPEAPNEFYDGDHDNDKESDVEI
# UniProt Q8NG08: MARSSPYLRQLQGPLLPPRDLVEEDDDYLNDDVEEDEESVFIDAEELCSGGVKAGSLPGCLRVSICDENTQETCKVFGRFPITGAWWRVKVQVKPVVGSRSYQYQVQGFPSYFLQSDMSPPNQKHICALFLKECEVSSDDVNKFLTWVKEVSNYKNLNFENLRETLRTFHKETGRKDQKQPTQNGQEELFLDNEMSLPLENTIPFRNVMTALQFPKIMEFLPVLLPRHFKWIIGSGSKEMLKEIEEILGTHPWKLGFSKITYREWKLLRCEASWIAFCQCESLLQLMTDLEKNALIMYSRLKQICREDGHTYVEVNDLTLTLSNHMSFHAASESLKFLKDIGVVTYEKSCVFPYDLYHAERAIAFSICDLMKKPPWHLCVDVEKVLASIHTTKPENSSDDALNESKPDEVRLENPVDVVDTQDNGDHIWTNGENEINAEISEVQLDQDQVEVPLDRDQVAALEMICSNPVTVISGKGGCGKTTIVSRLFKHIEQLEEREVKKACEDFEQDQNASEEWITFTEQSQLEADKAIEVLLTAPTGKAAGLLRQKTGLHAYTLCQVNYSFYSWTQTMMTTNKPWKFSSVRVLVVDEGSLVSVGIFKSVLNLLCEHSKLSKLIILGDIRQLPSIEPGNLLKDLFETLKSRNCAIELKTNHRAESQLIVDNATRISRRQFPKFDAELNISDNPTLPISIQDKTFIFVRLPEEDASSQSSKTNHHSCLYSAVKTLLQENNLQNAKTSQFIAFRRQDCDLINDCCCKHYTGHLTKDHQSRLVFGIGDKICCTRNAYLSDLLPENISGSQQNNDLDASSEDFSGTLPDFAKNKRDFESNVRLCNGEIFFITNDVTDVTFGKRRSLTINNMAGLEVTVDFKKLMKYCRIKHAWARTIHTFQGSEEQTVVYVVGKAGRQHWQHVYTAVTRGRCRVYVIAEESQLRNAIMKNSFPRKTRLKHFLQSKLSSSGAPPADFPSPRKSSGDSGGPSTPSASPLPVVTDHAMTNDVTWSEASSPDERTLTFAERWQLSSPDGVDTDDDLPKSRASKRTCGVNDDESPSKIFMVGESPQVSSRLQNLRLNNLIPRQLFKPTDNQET
# UniProt Q4G148: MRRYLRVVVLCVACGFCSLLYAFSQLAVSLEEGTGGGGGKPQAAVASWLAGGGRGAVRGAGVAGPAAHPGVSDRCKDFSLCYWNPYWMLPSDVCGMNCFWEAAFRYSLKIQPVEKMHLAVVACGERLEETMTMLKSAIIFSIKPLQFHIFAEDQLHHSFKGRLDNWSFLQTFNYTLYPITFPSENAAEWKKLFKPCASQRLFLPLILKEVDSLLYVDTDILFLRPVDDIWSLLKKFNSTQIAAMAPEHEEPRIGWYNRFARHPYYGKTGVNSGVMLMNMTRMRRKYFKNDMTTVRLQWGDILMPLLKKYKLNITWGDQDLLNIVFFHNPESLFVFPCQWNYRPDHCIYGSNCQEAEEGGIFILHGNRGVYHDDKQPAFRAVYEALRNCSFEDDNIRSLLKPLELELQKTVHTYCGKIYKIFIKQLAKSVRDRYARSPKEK
# UniProt P13984, whole entry, looked up: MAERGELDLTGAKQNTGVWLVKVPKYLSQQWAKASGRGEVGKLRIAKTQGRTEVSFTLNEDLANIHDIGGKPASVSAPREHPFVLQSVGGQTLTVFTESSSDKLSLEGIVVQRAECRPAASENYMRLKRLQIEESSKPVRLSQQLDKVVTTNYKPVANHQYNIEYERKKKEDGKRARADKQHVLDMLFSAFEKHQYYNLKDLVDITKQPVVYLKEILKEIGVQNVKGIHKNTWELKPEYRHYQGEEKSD
# UniProt Q13888: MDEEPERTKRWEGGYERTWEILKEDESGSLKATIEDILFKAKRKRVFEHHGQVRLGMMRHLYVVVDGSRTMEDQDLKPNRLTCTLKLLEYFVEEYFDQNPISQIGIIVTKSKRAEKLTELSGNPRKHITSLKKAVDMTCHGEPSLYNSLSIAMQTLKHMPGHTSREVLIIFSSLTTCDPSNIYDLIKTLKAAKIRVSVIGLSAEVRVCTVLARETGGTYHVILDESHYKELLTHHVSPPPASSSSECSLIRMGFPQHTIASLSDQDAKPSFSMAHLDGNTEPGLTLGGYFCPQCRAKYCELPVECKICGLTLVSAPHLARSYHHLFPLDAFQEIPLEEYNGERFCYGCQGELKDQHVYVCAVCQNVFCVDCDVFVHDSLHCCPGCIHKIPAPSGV
# UniProt Q16774: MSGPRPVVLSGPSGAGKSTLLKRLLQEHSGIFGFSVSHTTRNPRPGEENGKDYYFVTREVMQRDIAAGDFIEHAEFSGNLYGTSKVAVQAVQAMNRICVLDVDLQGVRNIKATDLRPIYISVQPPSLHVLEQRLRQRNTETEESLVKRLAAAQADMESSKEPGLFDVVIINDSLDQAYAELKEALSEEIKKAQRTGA
# The list shows a part of the results. Residues, ends and D or L forms follow the SMILES beside them. *: point of attachment. Cbz = O=C(OCc1ccccc1)*
# What was measured:
# Assay in all cases: log2 fold change, soluble protein after heating vs DMSO (PISA); higher = thermal stabilisation; K562 cells, 10 uM, 30 min; active = over 0.2 and 3.5 SD of the protein, either way, in both replicates (recomputed)
# IRAK-1-4 Inhibitor I = compound: C1COCCN1CCN2C3=CC=CC=C3N=C2NC(=O)C4=CC(=CC=C4)[N+](=O)[O-] [IRAK-1-4 Inhibitor I]
# Summary of the method: (§1)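 Aliquots of K562 cells (2×10^6 cells/mL) treated with 10 μM compound for 30 min were heated for 3 min over 48°C-58°C. After pooling and extraction in PBS with 0.5% NP-40 at 4°C, soluble protein from a 21,000xg, 90 min spin was quantified by TMTpro 16plex LC-MS/MS with channel sums equalised. Thermal stability is expressed against control samples, from duplicates, as a log2 fold change.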
# ibrutinib = compound: C=CC(=O)N1CCC[C@@H](n2nc(-c3ccc(Oc4ccccc4)cc3)c3c(N)ncnc32)C1 [ibrutinib]
# Summary of the method: as §1
# [1] = compound: CC(=O)c1cnc2ccc(-c3cc(Cl)c(O)c(Cl)c3)nc2c1N[C@H]1CC[C@H](CN(C)C)CC1
# Summary of the method: as §1
# ralimetinib = compound: CC(C)(C)Cn1c(N)nc2ccc(-c3[nH]c(C(C)(C)C)nc3-c3ccc(F)cc3)nc21 [ralimetinib]
# Summary of the method: as §1
# [2] = compound: CC(C)(O)CC(=O)NCCn1ccc2ncnc(Nc3ccc(Oc4cccc(C(F)(F)F)c4)c(Cl)c3)c21
# Summary of the method: as §1
# [3] = compound: CC(C)C1=C2N=C(C=C(N2N=C1)NCC3=CC=CC=C3)NCCCCCCN
# Summary of the method: as §1
# [4] = compound: CC(C)C[C@@H](C=O)NC(=O)[C@H](CC(C)C)NC(=O)[C@H](CC(C)C)NC(=O)OCc1ccccc1
# Summary of the method: as §1
# pinometostat = compound: CC(C)N(C[C@H]1O[C@@H](n2cnc3c(N)ncnc32)[C@H](O)[C@@H]1O)[C@H]1C[C@@H](CCc2nc3cc(C(C)(C)C)ccc3[nH]2)C1 [pinometostat]
# Summary of the method: as §1
# [5] = compound: CC1=C(C2=C(C=C1)C(=O)C3=CC=CC=C3N2CCCN)C
# Summary of the method: as §1
# [6] = compound: CC1=C(C=C(C=C1)NC(=O)C2=CC(=CC=C2)C(C)(C)C#N)NC3=CC4=C(C=C3)N=CN(C4=O)C
# Summary of the method: as §1
# [7] = compound: CC1=C(C=C(C=C1)NC(=O)C2=CC(=CC=C2)N(C)C)NC(=O)C3=CC=C(C=C3)O
# Summary of the method: as §1
# [8] = compound: CC1=CC=C(C=C1)SC2=C3C=C(SC3=CN=C2)C(=O)N
# Summary of the method: as §1
# [9] = compound: CC1=NC(=CC=C1)C2=C(N=C(N2)C(C)(C)C)C3=CC4=NC=CN=C4C=C3
# Summary of the method: as §1
# Nexturastat A = compound: CCCCN(Cc1ccc(C(=O)NO)cc1)C(=O)Nc1ccccc1 [Nexturastat A]
# Summary of the method: as §1
# vemurafenib = compound: CCCS(=O)(=O)Nc1ccc(F)c(C(=O)c2c[nH]c3ncc(-c4ccc(Cl)cc4)cc23)c1F [vemurafenib]
# Summary of the method: as §1
# [10] = compound: CCCS(=O)(=O)Nc1ccc(F)c(C(=O)c2c[nH]c3ncc(Cl)cc23)c1F
# Summary of the method: as §1
# [11] = compound: CCCc1cc(C)[nH]c(=O)c1CNC(=O)c1cc(-c2ccnc(N3CCN(C)CC3)c2)cc2c1cnn2C(C)C
# Summary of the method: as §1
# givinostat = compound: CCN(CC)Cc1ccc2cc(COC(=O)Nc3ccc(C(=O)NO)cc3)ccc2c1 [givinostat]
# Summary of the method: as §1
# barasertib = compound: CCN(CCCOc1ccc2c(Nc3cc(CC(=O)Nc4cccc(F)c4)[nH]n3)ncnc2c1)CCOP(=O)(O)O [barasertib]
# Summary of the method: as §1
# [12] = compound: CC1=C(C(CC(=O)N1)C2=CC=C(C=C2)C(F)(F)F)C(=O)NC3=C(C=C4C(=C3)C=NN4)F
# Summary of the method: as §1
Target,log2 fold change (IRAK-1-4 Inhibitor I),log2 fold change (ibrutinib),log2 fold change [1],log2 fold change (ralimetinib),log2 fold change [2],log2 fold change [3],log2 fold change [4],log2 fold change (pinometostat),log2 fold change [5],log2 fold change [6],log2 fold change [7],log2 fold change [8],log2 fold change [9],log2 fold change (Nexturastat A),log2 fold change (vemurafenib),log2 fold change [10],log2 fold change [11],log2 fold change (givinostat),log2 fold change (barasertib),log2 fold change [12]
HEXB (UniProt P07686),inactive: 0.06,inactive: 0.004,inactive: 0.003,inactive: -0.068,inactive: -0.004,inactive: -0.14,inactive: 0.003,inactive: -0.025,inactive: -0.03,inactive: 0,inactive: 0.029,inactive: 0.028,inactive: 0.022,inactive: -0.078,inactive: -0.003,inactive: -0.001,inactive: -0.019,inactive: -0.016,inactive: -0.015,
HDAC4 (UniProt P56524),inactive: 0.042,inactive: 0.023,inactive: -0.123,inactive: 0.112,inactive: -0.011,inactive: -0.043,inactive: -0.066,inactive: -0.041,inactive: -0.036,inactive: 0.032,inactive: -0.066,inactive: -0.081,inactive: -0.033,inactive: 0.088,inactive: -0.128,inactive: -0.099,inactive: 0.012,inactive: 0.356,inactive: -0.18,inactive: 0.064
GTF2I (UniProt P78347),inactive: -0.044,inactive: 0.099,inactive: -0.061,inactive: -0.005,inactive: -0.018,inactive: -0.099,inactive: 0.238,inactive: 0.149,inactive: -0.105,inactive: 0.013,inactive: -0.067,inactive: 0.017,inactive: -0.059,inactive: 0.184,inactive: -0.097,inactive: 0.091,inactive: -0.077,inactive: 0.119,inactive: 0.163,inactive: 0.023
GTPBP2 (UniProt Q9BX10),inactive: -0.008,inactive: 0.039,inactive: -0.068,inactive: 0.107,inactive: -0.042,inactive: -0.042,inactive: 0.075,inactive: 0.176,inactive: 0.1,inactive: 0.053,inactive: -0.029,inactive: -0.054,inactive: -0.042,inactive: 0.178,inactive: -0.049,inactive: -0.063,inactive: 0.04,inactive: 0.067,inactive: 0.022,inactive: -0.022
GSN (UniProt P06396),inactive: 0.041,inactive: 0.119,inactive: 0.019,inactive: -0.047,inactive: 0.075,inactive: 0.068,inactive: 0.004,inactive: -0.069,inactive: -0.01,inactive: -0.035,inactive: 0.123,inactive: 0.045,inactive: 0.054,inactive: -0.069,inactive: 0.055,inactive: -0.058,inactive: -0.223,inactive: -0.029,inactive: 0.018,inactive: 0.019
HBA1 (UniProt P69905),inactive: 0.002,inactive: 0.007,inactive: -0.03,inactive: -0.037,inactive: -0.035,inactive: 0.094,inactive: -0.056,inactive: 0.025,inactive: 0.127,inactive: 0.021,inactive: -0.068,inactive: 0.071,inactive: 0.018,inactive: 0.015,inactive: 0.137,inactive: 0.037,inactive: -0.038,inactive: -0.061,inactive: 0.072,
HBZ (UniProt P02008),inactive: 0.025,inactive: -0.001,inactive: -0.005,inactive: -0.052,inactive: -0.042,inactive: 0.102,inactive: -0.019,inactive: -0.017,inactive: 0.088,inactive: 0.01,inactive: -0.074,inactive: 0.025,inactive: 0.042,inactive: -0.013,inactive: -0.028,inactive: -0.006,inactive: -0.008,inactive: -0.052,inactive: 0.044,
HDAC3 isoform 2 (UniProt O15379),inactive: -0.018,inactive: 0.035,inactive: -0.231,inactive: 0.035,inactive: -0.047,inactive: 0.038,inactive: -0.062,inactive: -0.006,inactive: 0.026,inactive: -0.074,inactive: 0.066,inactive: -0.106,inactive: 0.025,inactive: -0.104,inactive: 0.028,inactive: -0.01,inactive: -0.038,inactive: 0.128,inactive: -0.052,inactive: -0.02
HELB (UniProt Q8NG08),inactive: 0.034,inactive: 0.039,inactive: -0.091,inactive: -0.021,inactive: -0.075,inactive: 0.058,inactive: -0.018,inactive: 0.016,inactive: 0.127,inactive: 0.008,inactive: 0.041,inactive: -0.017,inactive: 0.045,inactive: -0.038,inactive: 0.036,inactive: 0.114,inactive: -0.003,inactive: -0.011,inactive: 0.034,inactive: -0.031
GXYLT1 (UniProt Q4G148),inactive: -0.021,inactive: -0.204,inactive: -0.044,inactive: -0.009,inactive: -0.092,inactive: 0.03,inactive: -0.106,inactive: -0.14,inactive: 0.126,,inactive: -0.124,inactive: 0.054,inactive: 0.379,inactive: -0.327,inactive: 0.142,inactive: 0.039,inactive: 0.072,inactive: 0.028,inactive: 0.04,inactive: -0.138
GTF2F2 (UniProt P13984),inactive: 0.064,inactive: -0.013,inactive: -0.035,inactive: -0.108,inactive: -0.058,inactive: -0.01,inactive: 0.003,inactive: -0.004,inactive: 0.08,inactive: 0.004,inactive: -0.008,inactive: 0.018,inactive: 0.029,inactive: 0,inactive: 0.023,inactive: 0.005,inactive: 0.005,inactive: 0.025,inactive: 0.022,inactive: -0.017
H2AFX (UniProt P16104),inactive: -0.049,inactive: 0.077,inactive: 0.044,inactive: 0.193,inactive: 0.036,inactive: -0.008,inactive: 0.308,inactive: 0.368,active: 1.02,inactive: -0.088,inactive: -0.006,inactive: -0.231,inactive: -0.073,inactive: 0.754,inactive: -0.232,inactive: 0.329,inactive: 0.1,inactive: 0.328,inactive: -0.11,
GTF2H2 (UniProt Q13888),inactive: 0.034,inactive: -0.028,inactive: -0.031,inactive: 0.011,inactive: -0.009,inactive: 0.022,inactive: 0.095,inactive: 0.034,inactive: 0.056,inactive: -0.027,inactive: 0.004,inactive: 0,inactive: -0.033,inactive: 0.08,inactive: 0.016,inactive: -0.023,inactive: 0.008,inactive: -0.004,inactive: -0.001,inactive: 0.037
HEATR5B (UniProt Q9P2D3),inactive: -0.002,inactive: 0.017,inactive: 0.014,inactive: 0.04,inactive: -0.021,inactive: -0.063,inactive: 0.023,inactive: 0.008,inactive: 0.01,inactive: 0.013,inactive: 0.005,inactive: 0.03,inactive: 0.022,active: 0.219,inactive: 0.019,inactive: -0.014,inactive: -0.024,inactive: 0.07,inactive: 0,
GSTP1 (UniProt P09211),inactive: 0.12,inactive: -0.038,inactive: -0.074,inactive: -0.021,inactive: -0.015,inactive: 0.016,inactive: -0.023,inactive: -0.026,inactive: 0.03,inactive: 0.006,inactive: -0.003,inactive: 0.008,inactive: 0.008,inactive: -0.108,inactive: 0.022,inactive: -0.006,inactive: -0.1,inactive: -0.019,inactive: 0.023,
GUK1 isoform 2 (UniProt Q16774),inactive: -0.076,inactive: -0.033,inactive: -0.162,inactive: 0.038,inactive: -0.234,inactive: -0.033,inactive: 0.167,inactive: -0.037,inactive: 0.092,inactive: 0.173,inactive: -0.062,inactive: -0.018,inactive: 0.093,inactive: -0.065,inactive: 0.118,inactive: -0.002,inactive: 0.026,inactive: 0.072,inactive: -0.018,

# Four successive records from above:
Target,log2 fold change (IRAK-1-4 Inhibitor I),log2 fold change (ibrutinib),log2 fold change [1],log2 fold change (ralimetinib),log2 fold change [2],log2 fold change [3],log2 fold change [4],log2 fold change (pinometostat),log2 fold change [5],log2 fold change [6],log2 fold change [7],log2 fold change [8],log2 fold change [9],log2 fold change (Nexturastat A),log2 fold change (vemurafenib),log2 fold change [10],log2 fold change [11],log2 fold change (givinostat),log2 fold change (barasertib),log2 fold change [12]
HDAC4 (UniProt P56524),inactive: 0.042,inactive: 0.023,inactive: -0.123,inactive: 0.112,inactive: -0.011,inactive: -0.043,inactive: -0.066,inactive: -0.041,inactive: -0.036,inactive: 0.032,inactive: -0.066,inactive: -0.081,inactive: -0.033,inactive: 0.088,inactive: -0.128,inactive: -0.099,inactive: 0.012,inactive: 0.356,inactive: -0.18,inactive: 0.064
GTF2I (UniProt P78347),inactive: -0.044,inactive: 0.099,inactive: -0.061,inactive: -0.005,inactive: -0.018,inactive: -0.099,inactive: 0.238,inactive: 0.149,inactive: -0.105,inactive: 0.013,inactive: -0.067,inactive: 0.017,inactive: -0.059,inactive: 0.184,inactive: -0.097,inactive: 0.091,inactive: -0.077,inactive: 0.119,inactive: 0.163,inactive: 0.023
GTPBP2 (UniProt Q9BX10),inactive: -0.008,inactive: 0.039,inactive: -0.068,inactive: 0.107,inactive: -0.042,inactive: -0.042,inactive: 0.075,inactive: 0.176,inactive: 0.1,inactive: 0.053,inactive: -0.029,inactive: -0.054,inactive: -0.042,inactive: 0.178,inactive: -0.049,inactive: -0.063,inactive: 0.04,inactive: 0.067,inactive: 0.022,inactive: -0.022
GSN (UniProt P06396),inactive: 0.041,inactive: 0.119,inactive: 0.019,inactive: -0.047,inactive: 0.075,inactive: 0.068,inactive: 0.004,inactive: -0.069,inactive: -0.01,inactive: -0.035,inactive: 0.123,inactive: 0.045,inactive: 0.054,inactive: -0.069,inactive: 0.055,inactive: -0.058,inactive: -0.223,inactive: -0.029,inactive: 0.018,inactive: 0.019
